According to patent US7105307B2, “Compositions and methods for screening for modulators of enzymatic activity” (Cyclacel, Ltd., priority 1997, dated 2006):
Some results were stated once for a whole list of compounds, not compound by compound.

Experiment: Circular dichroism spectra and thermal denaturation of coiled-coil peptides
Type: physicochemical
Protocol: The circular dichroism (measured in units of ellipticity) of proteins at 222 nm provides a measure of the amount of α-helix present in the structure, with a large, negative ellipticity indicting a high level of helicity. The coiled-coil has a distinctive α-helical CD spectrum with minima at 222 nm and 208 nm (O'Shea et al., 1989, Science, 243: 538–542). […] In all experiments described herein, peptide concentration was determined by tyrosine absorbance at 280 nm in 6M GuHCl. […] It is clear that this leucine zipper peptide began to unfold at around 35° C. and was completely unfolded by 70° C.
As in Example 1, circular dichroism was used to assess the coiled-coil structure of the Zip4 polypeptides and the disruption of that structure by phosphorylation. […] This was confirmed by the CD spectra of Zip4S and Zip4SP at 1° C. (FIG. 12).
The coiled-coil motif has a characteristic CD spectrum. As described above, measurement of circular dichroism is useful to distinguish monomeric polypeptides from oligomers and to assess the stability of the structure present, although the technique cannot give information regarding the number of monomers making up the coiled-coil structure. […] Importantly, these peptides shown only have 4.5 leucine zipper heptads, and the incomplete nature of the final heptad is likely to compromise the stability of the coiled-coil structure.

| Sequence | temperature at which stable coiled-coils form (CD) [°C] |
| --- | --- |
| HMKQLEDKVEELLSKNYCLENEVRRLRRASFSLQ [Zip1] | < 20 |
| RRIRRASIDKVEELKSKNYCLENEVARLKKLVGER [Zip2] | < 20 |
